According to article PMC9657572:
Where two headings read alike, the source gives them in different places. These are yes or no findings as the source states them, for the method shown. Binding seen in cells or lysates may run through a third protein. For some assays here: Binding calls can cover weak binding; strength is not graded here.

Protein sequences, listed by entry. Tags and fused reporters are not part of them. Lines headed by an entry give the natural chain unless they say otherwise; changes in a name come on top.
UniProt P00441: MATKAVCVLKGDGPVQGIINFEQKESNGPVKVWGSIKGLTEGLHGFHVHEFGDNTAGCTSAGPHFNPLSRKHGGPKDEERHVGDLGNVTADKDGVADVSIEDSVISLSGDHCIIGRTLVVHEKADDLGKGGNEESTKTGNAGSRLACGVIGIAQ
UniProt P13864: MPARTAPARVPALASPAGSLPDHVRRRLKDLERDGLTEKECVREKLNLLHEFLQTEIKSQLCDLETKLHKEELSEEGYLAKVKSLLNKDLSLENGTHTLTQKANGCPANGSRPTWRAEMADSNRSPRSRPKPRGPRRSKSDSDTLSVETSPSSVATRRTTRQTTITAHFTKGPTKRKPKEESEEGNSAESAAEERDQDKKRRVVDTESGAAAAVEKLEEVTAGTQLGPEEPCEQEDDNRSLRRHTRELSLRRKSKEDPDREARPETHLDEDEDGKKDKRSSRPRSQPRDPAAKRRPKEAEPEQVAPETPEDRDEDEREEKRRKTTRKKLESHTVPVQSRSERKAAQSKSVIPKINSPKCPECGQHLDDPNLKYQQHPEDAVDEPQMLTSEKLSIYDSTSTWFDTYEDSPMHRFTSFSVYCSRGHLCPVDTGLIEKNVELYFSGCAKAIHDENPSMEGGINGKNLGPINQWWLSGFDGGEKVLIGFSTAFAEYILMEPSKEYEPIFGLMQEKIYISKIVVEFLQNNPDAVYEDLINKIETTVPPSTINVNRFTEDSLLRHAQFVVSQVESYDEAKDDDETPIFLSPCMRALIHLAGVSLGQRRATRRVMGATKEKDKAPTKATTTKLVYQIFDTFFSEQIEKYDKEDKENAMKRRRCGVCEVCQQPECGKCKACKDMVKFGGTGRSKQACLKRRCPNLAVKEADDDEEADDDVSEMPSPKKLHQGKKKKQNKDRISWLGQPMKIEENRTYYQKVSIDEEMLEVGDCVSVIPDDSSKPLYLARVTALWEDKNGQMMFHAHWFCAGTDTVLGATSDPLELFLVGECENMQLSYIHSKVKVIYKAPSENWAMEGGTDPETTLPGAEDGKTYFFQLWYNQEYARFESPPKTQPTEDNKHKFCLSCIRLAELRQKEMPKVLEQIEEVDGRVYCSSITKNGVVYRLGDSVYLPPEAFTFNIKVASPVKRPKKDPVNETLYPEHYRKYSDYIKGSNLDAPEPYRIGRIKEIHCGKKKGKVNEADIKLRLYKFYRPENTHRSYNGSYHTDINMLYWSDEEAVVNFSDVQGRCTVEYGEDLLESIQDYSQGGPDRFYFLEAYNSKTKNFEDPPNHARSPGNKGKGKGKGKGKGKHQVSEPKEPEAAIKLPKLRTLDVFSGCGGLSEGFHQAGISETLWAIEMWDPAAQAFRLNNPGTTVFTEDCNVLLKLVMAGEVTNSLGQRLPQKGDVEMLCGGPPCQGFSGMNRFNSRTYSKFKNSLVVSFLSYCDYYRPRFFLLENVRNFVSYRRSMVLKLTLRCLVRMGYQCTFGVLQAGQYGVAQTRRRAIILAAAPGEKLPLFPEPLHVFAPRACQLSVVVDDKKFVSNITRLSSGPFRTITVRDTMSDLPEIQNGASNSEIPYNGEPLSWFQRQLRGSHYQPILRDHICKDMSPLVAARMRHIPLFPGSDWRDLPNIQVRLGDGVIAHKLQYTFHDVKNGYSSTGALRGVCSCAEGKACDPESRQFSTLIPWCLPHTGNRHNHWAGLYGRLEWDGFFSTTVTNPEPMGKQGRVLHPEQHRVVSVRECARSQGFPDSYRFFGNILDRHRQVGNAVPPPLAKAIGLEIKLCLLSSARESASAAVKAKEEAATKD

Key:
[1] = target: human superoxide dismutase-1 (hSOD1), variant not named for this experiment (human) (UniProt P00441); experiment: co-IP; skeletal muscle protein extract (500 µg) of hSOD1 tg mice with 5 µg human-specific hSOD1 antibody (MBL, clone 1G2), captured on agarose-conjugated protein A; SDS-PAGE and Western blot for DNMT3A, DNMT1 or DNMT2; mitochondrial-enriched fractions for DNMT3A
[2] = target: human superoxide dismutase-1 (hSOD1), variant not named for this experiment (human) (UniProt P00441); experiment: as above; remark: listed apart in the source

binding [1] | binding [2] | Molecule
no binding | – | DNA methyltransferase-1 (DNMT1) (from UniProt P13864 1-1620) (enzyme)
– | binds weakly | DNMT2, also known as tRNA aspartic acid methyltransferase-1 (TRDMT1) (enzyme, UniProt O55055 1-415) MEPLRVLELYSGIGGMHHALRESHIPAHVVAAIDVNTVANEVYKHNFPHTHLLSKTIEGISLEDFDKLSFNMILMSPPCQPFTRIGLQGDMTDPRTTSFLYILDILPRLQKLPKYILLENVKGFEVSSTRGLLIQTIEACGFQYQEFLLSPSSLGIPNSRLRYFLIAKLQSEPFPFQAPGQILMEFPKIVTVEPQKYAVVEESQPRVQRTGPRICAESSSTQSSGKDTILFKLETVEERDRKHQQDSDLSVQMLKDFLEDGDTDEYLLPPKLLLRYALLLDIVKPTSRRSMCFTKGYGSYIEGTGSVLQAAEDAQIENIYKSLPDLPPEEKIAKLSMLKLRYFTPKEIANLQGFPPEFGFPEKTTVKQRYRLLGNSLNVHVVAKLLTVLCEGFGNASESCHKMPLILDSNSKILS
